Data reported in the supplement of paper PMC10849652.
Some of the results follow. Residues, ends and D or L forms follow the SMILES beside them. *: point of attachment. Cbz = O=C(OCc1ccccc1)*

Amino acid sequences for entries named in this document (tags omitted). A change or cut given only in a name is not applied to a line headed by its entry.
UniProt Q9Y6M9, whole entry, looked up: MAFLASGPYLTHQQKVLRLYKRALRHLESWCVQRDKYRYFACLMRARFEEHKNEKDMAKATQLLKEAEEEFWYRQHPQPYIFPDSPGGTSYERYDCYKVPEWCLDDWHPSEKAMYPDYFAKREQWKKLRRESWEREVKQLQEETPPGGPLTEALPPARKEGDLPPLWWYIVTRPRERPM
UniProt Q9Y375: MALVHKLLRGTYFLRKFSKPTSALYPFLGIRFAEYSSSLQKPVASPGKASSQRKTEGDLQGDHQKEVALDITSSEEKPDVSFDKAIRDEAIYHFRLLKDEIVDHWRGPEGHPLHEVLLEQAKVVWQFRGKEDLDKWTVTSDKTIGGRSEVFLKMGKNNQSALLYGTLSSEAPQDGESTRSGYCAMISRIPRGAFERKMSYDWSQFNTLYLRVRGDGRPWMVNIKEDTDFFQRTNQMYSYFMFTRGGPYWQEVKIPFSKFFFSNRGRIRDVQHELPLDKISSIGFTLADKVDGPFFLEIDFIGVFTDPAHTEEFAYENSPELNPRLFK
UniProt O76041: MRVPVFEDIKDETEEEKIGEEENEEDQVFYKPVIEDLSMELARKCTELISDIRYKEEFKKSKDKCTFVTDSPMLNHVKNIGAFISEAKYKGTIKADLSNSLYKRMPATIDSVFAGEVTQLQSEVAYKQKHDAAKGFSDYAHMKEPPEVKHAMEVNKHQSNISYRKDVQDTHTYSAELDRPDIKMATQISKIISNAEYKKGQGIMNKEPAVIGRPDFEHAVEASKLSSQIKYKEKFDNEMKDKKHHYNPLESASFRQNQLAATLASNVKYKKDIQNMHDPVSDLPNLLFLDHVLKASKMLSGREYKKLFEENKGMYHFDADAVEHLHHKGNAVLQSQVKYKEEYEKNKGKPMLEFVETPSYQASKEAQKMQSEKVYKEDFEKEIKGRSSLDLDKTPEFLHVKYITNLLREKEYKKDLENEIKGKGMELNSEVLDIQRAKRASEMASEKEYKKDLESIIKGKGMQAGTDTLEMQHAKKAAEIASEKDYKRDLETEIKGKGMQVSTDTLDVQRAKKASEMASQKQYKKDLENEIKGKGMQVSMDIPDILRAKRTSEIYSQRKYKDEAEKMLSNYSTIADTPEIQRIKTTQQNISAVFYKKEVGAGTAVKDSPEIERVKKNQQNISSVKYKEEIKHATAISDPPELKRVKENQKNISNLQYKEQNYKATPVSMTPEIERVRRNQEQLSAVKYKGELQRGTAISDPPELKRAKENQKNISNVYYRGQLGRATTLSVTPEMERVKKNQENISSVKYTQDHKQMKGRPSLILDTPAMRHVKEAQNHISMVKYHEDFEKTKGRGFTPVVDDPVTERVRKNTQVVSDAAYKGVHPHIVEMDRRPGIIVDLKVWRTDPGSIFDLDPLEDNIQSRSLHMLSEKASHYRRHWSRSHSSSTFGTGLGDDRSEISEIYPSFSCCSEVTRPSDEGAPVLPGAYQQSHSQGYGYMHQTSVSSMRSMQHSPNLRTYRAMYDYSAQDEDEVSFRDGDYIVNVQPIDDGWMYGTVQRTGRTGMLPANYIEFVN
UniProt P43490: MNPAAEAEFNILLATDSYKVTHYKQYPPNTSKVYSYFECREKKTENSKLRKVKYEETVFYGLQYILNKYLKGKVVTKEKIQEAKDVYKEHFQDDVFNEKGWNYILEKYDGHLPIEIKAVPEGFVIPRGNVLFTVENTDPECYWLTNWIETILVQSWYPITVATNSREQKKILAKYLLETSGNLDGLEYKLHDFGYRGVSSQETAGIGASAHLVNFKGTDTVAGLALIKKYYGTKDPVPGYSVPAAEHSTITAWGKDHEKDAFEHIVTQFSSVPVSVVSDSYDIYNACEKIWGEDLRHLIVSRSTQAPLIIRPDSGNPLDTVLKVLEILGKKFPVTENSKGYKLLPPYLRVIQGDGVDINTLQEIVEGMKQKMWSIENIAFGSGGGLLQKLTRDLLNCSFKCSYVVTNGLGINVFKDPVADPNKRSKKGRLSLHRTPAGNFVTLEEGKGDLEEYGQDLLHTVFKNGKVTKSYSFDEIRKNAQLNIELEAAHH
UniProt P54920: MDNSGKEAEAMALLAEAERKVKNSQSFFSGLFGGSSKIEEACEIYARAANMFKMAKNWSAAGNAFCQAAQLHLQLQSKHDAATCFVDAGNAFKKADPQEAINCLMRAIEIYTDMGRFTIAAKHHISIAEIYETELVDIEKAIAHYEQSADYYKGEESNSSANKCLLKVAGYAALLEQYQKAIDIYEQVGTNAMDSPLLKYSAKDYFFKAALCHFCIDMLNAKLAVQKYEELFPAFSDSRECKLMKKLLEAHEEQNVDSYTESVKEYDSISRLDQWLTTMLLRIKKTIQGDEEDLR
UniProt Q86Y39, whole entry, looked up: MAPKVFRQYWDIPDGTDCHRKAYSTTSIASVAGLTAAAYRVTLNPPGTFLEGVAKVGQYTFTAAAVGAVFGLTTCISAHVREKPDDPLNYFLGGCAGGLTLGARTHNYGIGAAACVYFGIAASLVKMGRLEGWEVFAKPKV
UniProt O75380, whole entry, looked up: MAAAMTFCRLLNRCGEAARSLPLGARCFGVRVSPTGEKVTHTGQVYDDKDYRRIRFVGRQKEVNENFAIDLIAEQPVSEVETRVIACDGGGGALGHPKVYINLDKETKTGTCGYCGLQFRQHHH
UniProt Q8N183: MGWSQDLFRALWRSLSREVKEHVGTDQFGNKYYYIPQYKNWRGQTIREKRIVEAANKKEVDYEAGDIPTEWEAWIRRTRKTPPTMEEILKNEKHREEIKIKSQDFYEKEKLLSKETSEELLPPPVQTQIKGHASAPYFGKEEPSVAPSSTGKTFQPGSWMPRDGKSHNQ
UniProt Q9H0A0: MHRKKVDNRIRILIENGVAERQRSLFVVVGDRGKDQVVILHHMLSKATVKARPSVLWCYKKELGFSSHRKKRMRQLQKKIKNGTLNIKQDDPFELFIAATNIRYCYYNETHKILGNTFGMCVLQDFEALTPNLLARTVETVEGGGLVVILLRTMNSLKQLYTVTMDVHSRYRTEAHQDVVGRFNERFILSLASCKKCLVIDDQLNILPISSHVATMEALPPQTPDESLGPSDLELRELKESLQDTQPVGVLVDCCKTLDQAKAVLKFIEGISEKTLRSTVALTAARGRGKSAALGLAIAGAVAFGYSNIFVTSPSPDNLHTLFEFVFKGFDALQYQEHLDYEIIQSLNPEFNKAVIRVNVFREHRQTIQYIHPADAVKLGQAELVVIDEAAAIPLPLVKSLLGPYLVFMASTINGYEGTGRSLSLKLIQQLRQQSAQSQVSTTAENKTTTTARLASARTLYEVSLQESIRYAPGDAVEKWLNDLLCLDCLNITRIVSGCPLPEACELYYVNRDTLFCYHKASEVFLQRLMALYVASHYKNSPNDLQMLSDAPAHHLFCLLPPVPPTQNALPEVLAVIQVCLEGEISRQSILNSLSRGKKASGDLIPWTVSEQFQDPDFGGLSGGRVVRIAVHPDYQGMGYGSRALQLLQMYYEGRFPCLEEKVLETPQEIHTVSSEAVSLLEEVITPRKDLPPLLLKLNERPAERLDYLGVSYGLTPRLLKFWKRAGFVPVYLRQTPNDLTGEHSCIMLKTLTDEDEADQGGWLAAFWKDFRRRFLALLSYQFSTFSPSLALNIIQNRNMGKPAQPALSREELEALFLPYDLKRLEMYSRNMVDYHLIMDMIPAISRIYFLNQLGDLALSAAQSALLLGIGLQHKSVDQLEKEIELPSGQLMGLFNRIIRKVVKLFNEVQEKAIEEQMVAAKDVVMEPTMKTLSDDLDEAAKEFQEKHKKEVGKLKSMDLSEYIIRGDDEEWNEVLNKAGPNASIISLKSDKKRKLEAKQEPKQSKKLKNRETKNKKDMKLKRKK
UniProt O43776: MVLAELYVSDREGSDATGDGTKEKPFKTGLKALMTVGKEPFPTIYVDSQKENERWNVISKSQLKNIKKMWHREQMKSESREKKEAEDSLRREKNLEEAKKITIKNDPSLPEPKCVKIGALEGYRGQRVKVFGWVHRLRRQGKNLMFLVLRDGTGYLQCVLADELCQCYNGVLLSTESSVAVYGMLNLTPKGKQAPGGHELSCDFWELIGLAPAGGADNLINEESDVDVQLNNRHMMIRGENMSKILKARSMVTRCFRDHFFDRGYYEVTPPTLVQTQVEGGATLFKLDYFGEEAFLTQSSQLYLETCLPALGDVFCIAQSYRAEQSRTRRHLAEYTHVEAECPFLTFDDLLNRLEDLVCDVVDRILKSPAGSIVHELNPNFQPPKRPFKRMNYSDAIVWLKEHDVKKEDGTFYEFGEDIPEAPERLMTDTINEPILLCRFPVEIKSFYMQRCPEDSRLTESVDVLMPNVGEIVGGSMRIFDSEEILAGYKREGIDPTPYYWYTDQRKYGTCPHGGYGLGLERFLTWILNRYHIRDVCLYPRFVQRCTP
UniProt P56181: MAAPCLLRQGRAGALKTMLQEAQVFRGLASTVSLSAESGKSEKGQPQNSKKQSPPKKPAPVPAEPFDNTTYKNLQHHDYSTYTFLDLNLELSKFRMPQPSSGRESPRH
UniProt Q9BXJ9: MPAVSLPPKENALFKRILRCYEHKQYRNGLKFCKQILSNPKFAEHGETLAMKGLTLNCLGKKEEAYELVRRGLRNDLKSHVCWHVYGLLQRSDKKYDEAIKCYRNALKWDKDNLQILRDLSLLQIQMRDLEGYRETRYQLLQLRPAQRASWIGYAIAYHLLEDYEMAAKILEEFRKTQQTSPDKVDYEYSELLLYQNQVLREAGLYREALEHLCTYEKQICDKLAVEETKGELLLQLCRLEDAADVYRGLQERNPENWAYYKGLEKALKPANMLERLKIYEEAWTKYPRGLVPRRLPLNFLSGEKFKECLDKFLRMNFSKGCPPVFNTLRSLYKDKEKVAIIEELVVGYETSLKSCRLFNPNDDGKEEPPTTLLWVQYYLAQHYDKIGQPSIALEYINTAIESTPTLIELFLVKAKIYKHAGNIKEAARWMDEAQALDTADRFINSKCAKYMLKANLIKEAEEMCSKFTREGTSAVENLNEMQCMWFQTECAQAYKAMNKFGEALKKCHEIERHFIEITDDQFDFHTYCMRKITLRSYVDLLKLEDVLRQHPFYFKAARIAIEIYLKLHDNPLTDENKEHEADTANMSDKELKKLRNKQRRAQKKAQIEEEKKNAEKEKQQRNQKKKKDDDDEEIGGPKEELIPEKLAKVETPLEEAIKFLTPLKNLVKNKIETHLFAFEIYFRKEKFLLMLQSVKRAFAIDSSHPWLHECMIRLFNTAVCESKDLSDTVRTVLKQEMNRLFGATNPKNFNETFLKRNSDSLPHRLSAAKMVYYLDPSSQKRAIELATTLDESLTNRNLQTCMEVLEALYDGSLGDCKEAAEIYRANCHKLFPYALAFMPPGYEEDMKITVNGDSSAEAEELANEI
UniProt Q9UGV2: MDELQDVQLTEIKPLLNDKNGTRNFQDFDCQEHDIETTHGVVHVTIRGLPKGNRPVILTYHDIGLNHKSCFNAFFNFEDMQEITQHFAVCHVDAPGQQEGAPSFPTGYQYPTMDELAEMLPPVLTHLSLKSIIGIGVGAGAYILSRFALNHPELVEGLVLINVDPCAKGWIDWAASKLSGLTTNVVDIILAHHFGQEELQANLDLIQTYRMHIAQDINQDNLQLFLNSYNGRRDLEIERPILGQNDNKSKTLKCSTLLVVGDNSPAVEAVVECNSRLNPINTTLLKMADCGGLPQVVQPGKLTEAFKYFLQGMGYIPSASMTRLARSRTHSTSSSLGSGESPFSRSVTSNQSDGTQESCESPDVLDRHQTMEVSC
UniProt Q9NX14, whole entry, looked up: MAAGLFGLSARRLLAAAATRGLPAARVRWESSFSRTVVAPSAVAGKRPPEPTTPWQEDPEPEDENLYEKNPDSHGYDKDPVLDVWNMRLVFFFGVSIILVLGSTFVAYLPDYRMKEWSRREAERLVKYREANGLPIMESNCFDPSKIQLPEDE

Experiments:
Assay in all cases: log2 fold change, soluble protein after heating vs DMSO (PISA); higher = thermal stabilisation; K562 cells, 10 uM, 30 min; active = over 0.2 and 3.5 SD of the protein, either way, in both replicates (recomputed)
erlotinib = compound: C#Cc1cccc(Nc2ncnc3cc(OCCOC)c(OCCOC)cc23)c1 [erlotinib]
How it was run: (§1)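 K562 cells at 2×10^6 cells/mL were given 10 μM compound for 30 min. Aliquots then went through 3 min of heating across 48°C-58°C, were pooled, and were extracted in PBS with 0.5% NP-40 at 4°C, and the supernatant after 21,000xg for 90 min was quantified by TMTpro 16plex LC-MS/MS with channel sums equalised. Thermal stability relative to control samples, from duplicates, is given as log2 fold change.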

[1] = compound: C/C(=N\NC(=O)C1=CC(=CC=C1)S(=O)(=O)N2CCOCC2)/C3=C(C=CC(=C3)Cl)O
How it was run: as §1

[2] = compound: C1=CC(=C(C=C1Cl)C2=NC3=NC=CN=C3C(=N2)NC4=CC=NC=C4)F
How it was run: as §1

[3] = compound: C1=CC(=CC=C1C2=NC3=C(N2)C=C(C=C3)C(=O)N)OC4=CC=C(C=C4)Cl
How it was run: as §1

[4] = compound: C1=CC2=C(C=CC(=C2)/C=C\3/C(=O)NC(=NCC4=CC=CS4)S3)N=C1
How it was run: as §1

[5] = compound: C1=CC2=NC=CN=C2C=C1/C=C/3\C(=O)NC(=O)S3
How it was run: as §1

[6] = compound: C1=CC=C(C=C1)C2=NC(=C(N2)C3=CC=NC=C3)C4=CC(=C(C=C4)Cl)O
How it was run: as §1

[7] = compound: C1=CC=C2C(=C1)C3=NNC4=CC=CC(=C43)C2=O
How it was run: as §1

[8] = compound: C1CCN(C1)C(=O)NC2=CC=CC(=C2)NC3=NC=C(C(=N3)NCCC4=CN=CN4)Br
How it was run: as §1

[9] = compound: C1CN(CCC1(CC2=CC=C(C=C2)Cl)N)C3=NC=NC4=C3C=CN4
How it was run: as §1

IRAK-1-4 Inhibitor I = compound: C1COCCN1CCN2C3=CC=CC=C3N=C2NC(=O)C4=CC(=CC=C4)[N+](=O)[O-] [IRAK-1-4 Inhibitor I]
How it was run: as §1

ibrutinib = compound: C=CC(=O)N1CCC[C@@H](n2nc(-c3ccc(Oc4ccccc4)cc3)c3c(N)ncnc32)C1 [ibrutinib]
How it was run: as §1

[10] = compound: CC(=O)c1cnc2ccc(-c3cc(Cl)c(O)c(Cl)c3)nc2c1N[C@H]1CC[C@H](CN(C)C)CC1
How it was run: as §1

ralimetinib = compound: CC(C)(C)Cn1c(N)nc2ccc(-c3[nH]c(C(C)(C)C)nc3-c3ccc(F)cc3)nc21 [ralimetinib]
How it was run: as §1

[11] = compound: CC(C)(O)CC(=O)NCCn1ccc2ncnc(Nc3ccc(Oc4cccc(C(F)(F)F)c4)c(Cl)c3)c21
How it was run: as §1

[12] = compound: CC(C)C1=C2N=C(C=C(N2N=C1)NCC3=CC=CC=C3)NCCCCCCN
How it was run: as §1

[13] = compound: CC(C)C[C@@H](C=O)NC(=O)[C@H](CC(C)C)NC(=O)[C@H](CC(C)C)NC(=O)OCc1ccccc1
How it was run: as §1

pinometostat = compound: CC(C)N(C[C@H]1O[C@@H](n2cnc3c(N)ncnc32)[C@H](O)[C@@H]1O)[C@H]1C[C@@H](CCc2nc3cc(C(C)(C)C)ccc3[nH]2)C1 [pinometostat]
How it was run: as §1

[14] = compound: CC1=C(C(CC(=O)N1)C2=CC=C(C=C2)C(F)(F)F)C(=O)NC3=C(C=C4C(=C3)C=NN4)F
How it was run: as §1

[15] = compound: CC1=C(C2=C(C=C1)C(=O)C3=CC=CC=C3N2CCCN)C
How it was run: as §1

Measured: log2 fold change

NDUFB9 (UniProt Q9Y6M9)
inactive: erlotinib 0.011 | [1] 0.025 | [2] 0.018 | [3] 0.009 | [4] 0.026 | [5] -0.013 | [6] 0.041 | [7] -0.036 | [8] -0.002 | [9] 0.06 | IRAK-1-4 Inhibitor I 0.049 | ibrutinib 0.018 | [10] 0.01 | ralimetinib -0.016 | [11] -0.026 | [12] -0.075 | [13] -0.008 | pinometostat -0.024 | [14] -0.028 | [15] 0.028

NDUFAF1 (UniProt Q9Y375)
inactive: erlotinib 0.009 | [1] -0.06 | [2] 0.084 | [3] -0.037 | [4] 0.025 | [5] 0.065 | [6] -0.038 | [7] 0.008 | [8] 0.023 | [9] 0.019 | IRAK-1-4 Inhibitor I 0.02 | ibrutinib 0.045 | [10] 0.004 | ralimetinib -0.04 | [11] -0.047 | [12] 0.004 | [13] 0.017 | pinometostat -0.053 | [14] 0.017 | [15] -0.021

NEBL (UniProt O76041)
inactive: erlotinib 0.012 | [1] -0.078 | [2] 0.021 | [3] -0.115 | [4] -0.054 | [5] -0.026 | [6] -0.004 | [7] -0.069 | [8] 0.044 | [9] 0.115 | IRAK-1-4 Inhibitor I 0.077 | ibrutinib 0.079 | [10] -0.199 | ralimetinib -0.076 | [11] 0.008 | [12] 0.069 | [13] 0.079 | pinometostat 0.04 | [14] -0.252 | [15] -0.033

NAMPT (UniProt P43490)
inactive: erlotinib -0.003 | [1] 0.007 | [2] 0.035 | [3] -0.018 | [4] 0.007 | [5] -0.003 | [6] 0.007 | [7] -0.004 | [8] 0.007 | [9] 0.034 | IRAK-1-4 Inhibitor I 0.031 | ibrutinib 0.027 | [10] 0.005 | ralimetinib -0.073 | [11] -0.009 | [12] 0.062 | [13] -0.011 | pinometostat -0.033 | [14] -0.003 | [15] 0.039

NAPA (UniProt P54920)
inactive: erlotinib -0.014 | [1] 0.094 | [2] 0.039 | [3] 0.015 | [4] -0.031 | [5] 0.025 | [6] 0.063 | [7] -0.003 | [8] -0.056 | [9] 0.026 | IRAK-1-4 Inhibitor I 0.039 | ibrutinib -0.009 | [10] 0 | ralimetinib 0.009 | [11] -0.094 | [12] -0.01 | [13] -0.041 | pinometostat -0.016 | [14] -0.001 | [15] -0.019

NACA4P (UniProt Q9BZK3)
inactive: erlotinib 0.152 | [1] 0.05 | [2] 0.071 | [3] -0.081 | [4] -0.178 | [5] 0.233 | [6] 0.098 | [7] 0.152 | [8] -0.163 | [9] 0.045 | IRAK-1-4 Inhibitor I -0.027 | ibrutinib -0.018 | [10] 0.082 | ralimetinib 0.021 | [11] -0.028 | [12] 0.345 | [13] -0.063 | pinometostat -0.097 | [14] -0.11 | [15] 0.149

NCOR2 (UniProt C9J0Q5)
inactive: erlotinib 0.087 | [1] 0.153 | [2] 0.073 | [3] 0.052 | [4] 0.232 | [5] -0.003 | [6] -0.036 | [7] -0.071 | [8] 0.003 | [9] 0.118 | IRAK-1-4 Inhibitor I 0.181 | ibrutinib 0.004 | [10] -0.102 | ralimetinib 0.013 | [11] 0.04 | [12] -0.007 | [13] -0.077 | pinometostat -0.032 | [14] -0.109 | [15] 0.041

NDUFA11 (UniProt Q86Y39)
inactive: erlotinib 0.019 | [1] 0.03 | [2] 0.089 | [3] 0 | [4] 0.012 | [5] 0.043 | [6] 0.006 | [7] -0.005 | [8] -0.019 | [9] -0.029 | IRAK-1-4 Inhibitor I 0.033 | ibrutinib -0.001 | [10] -0.013 | ralimetinib -0.042 | [11] -0.014 | [12] -0.04 | [13] -0.03 | pinometostat -0.055 | [14] 0.021 | [15] 0.011

NDUFS6 (UniProt O75380)
inactive: erlotinib -0.083 | [1] -0.057 | [2] -0.016 | [3] 0.043 | [4] -0.044 | [5] 0.022 | [6] -0.007 | [7] -0.046 | [8] 0.146 | [9] 0.158 | IRAK-1-4 Inhibitor I 0.026 | ibrutinib 0.02 | [10] 0.082 | ralimetinib -0.027 | [11] -0.052 | [12] 0.069 | [13] 0.242 | pinometostat 0.002 | [14] 0.053 | [15] -0.07

NDUFAF2 (UniProt Q8N183)
inactive: erlotinib 0.036 | [1] 0.008 | [2] 0.053 | [3] -0.013 | [4] 0.028 | [5] 0.033 | [6] -0.042 | [7] -0.019 | [8] -0.002 | [9] 0.033 | IRAK-1-4 Inhibitor I 0.046 | ibrutinib -0.004 | [10] -0.008 | ralimetinib -0.002 | [11] -0.044 | [12] -0.042 | [13] 0 | pinometostat -0.058 | [14] 0.014 | [15] 0.009

Retrieved one by one from the entries so far, two records:
NDUFB9 (UniProt Q9Y6M9)
inactive: erlotinib 0.011 | [1] 0.025 | [2] 0.018 | [3] 0.009 | [4] 0.026 | [5] -0.013 | [6] 0.041 | [7] -0.036 | [8] -0.002 | [9] 0.06 | IRAK-1-4 Inhibitor I 0.049 | ibrutinib 0.018 | [10] 0.01 | ralimetinib -0.016 | [11] -0.026 | [12] -0.075 | [13] -0.008 | pinometostat -0.024 | [14] -0.028 | [15] 0.028

NDUFAF1 (UniProt Q9Y375)
inactive: erlotinib 0.009 | [1] -0.06 | [2] 0.084 | [3] -0.037 | [4] 0.025 | [5] 0.065 | [6] -0.038 | [7] 0.008 | [8] 0.023 | [9] 0.019 | IRAK-1-4 Inhibitor I 0.02 | ibrutinib 0.045 | [10] 0.004 | ralimetinib -0.04 | [11] -0.047 | [12] 0.004 | [13] 0.017 | pinometostat -0.053 | [14] 0.017 | [15] -0.021

The listing continues.

NAT10 (UniProt Q9H0A0)
inactive: erlotinib -0.265 | [1] -0.188 | [2] -0.417 | [3] 0.043 | [4] 0 | [5] 0.029 | [6] 0.012 | [7] 0.01 | [8] 0.076 | [9] -0.061 | IRAK-1-4 Inhibitor I -0.114 | ibrutinib -0.009 | [10] 0.079 | ralimetinib 0.09 | [11] 0 | [12] 0.051 | [13] 0.212 | pinometostat 0.32 | [14] -0.163 | [15] -0.213

NARS1 (UniProt O43776)
inactive: erlotinib 0.005 | [1] -0.046 | [2] 0.01 | [3] 0.009 | [4] -0.032 | [5] 0.02 | [6] -0.008 | [7] 0.019 | [8] 0.01 | [9] 0.013 | IRAK-1-4 Inhibitor I 0.004 | ibrutinib 0.001 | [10] 0.001 | ralimetinib -0.023 | [11] 0.064 | [12] 0.08 | [13] -0.017 | pinometostat -0.025 | [14] 0.009 | [15] 0.013

NDUFV3 (UniProt P56181)
inactive: erlotinib -0.175 | [1] 0.001 | [2] 0.045 | [3] -0.076 | [4] 0.049 | [5] 0.135 | [6] -0.002 | [7] -0.027 | [8] -0.18 | [9] -0.093 | IRAK-1-4 Inhibitor I 0.003 | ibrutinib -0.032 | [10] -0.015 | ralimetinib -0.126 | [11] 0.019 | [12] 0.197 | [13] 0.091 | pinometostat -0.078 | [14] 0.012 | [15] 0.109

NAA15 (UniProt Q9BXJ9)
inactive: erlotinib 0.004 | [1] 0.018 | [2] 0.059 | [3] 0.012 | [4] 0.013 | [5] -0.079 | [6] 0.008 | [7] -0.012 | [8] -0.002 | [9] 0.037 | IRAK-1-4 Inhibitor I 0.017 | ibrutinib -0.004 | [10] -0.054 | ralimetinib -0.054 | [11] -0.01 | [12] -0.003 | [13] -0.045 | pinometostat -0.034 | [14] 0.016 | [15] 0.031

NDRG3 (UniProt Q9UGV2)
inactive: erlotinib -0.017 | [1] -0.048 | [2] 0.061 | [3] 0.033 | [4] 0.026 | [5] 0.047 | [6] -0.135 | [7] -0.057 | [8] 0.016 | [9] 0.018 | IRAK-1-4 Inhibitor I 0.001 | ibrutinib -0.009 | [10] -0.011 | ralimetinib -0.088 | [11] -0.021 | [12] -0.036 | [13] 0.121 | pinometostat 0.003 | [14] -0.006 | [15] -0.057

NDUFB11 isoform 2 (UniProt Q9NX14)
inactive: erlotinib -0.023 | [1] 0.055 | [2] 0.105 | [3] 0.047 | [4] 0.044 | [5] 0.012 | [6] 0.016 | [7] -0.016 | [8] -0.009 | [9] -0.037 | IRAK-1-4 Inhibitor I 0.054 | ibrutinib -0.003 | [10] 0 | ralimetinib -0.003 | [11] 0.013 | [12] -0.024 | [13] -0.001 | pinometostat -0.057 | [14] 0.007 | [15] 0.069
